Percent effect of library compounds

Amino acid sequences for entries named in this document (tags omitted). Residues count along the entry.
UniProt Q4DA54, 1-478: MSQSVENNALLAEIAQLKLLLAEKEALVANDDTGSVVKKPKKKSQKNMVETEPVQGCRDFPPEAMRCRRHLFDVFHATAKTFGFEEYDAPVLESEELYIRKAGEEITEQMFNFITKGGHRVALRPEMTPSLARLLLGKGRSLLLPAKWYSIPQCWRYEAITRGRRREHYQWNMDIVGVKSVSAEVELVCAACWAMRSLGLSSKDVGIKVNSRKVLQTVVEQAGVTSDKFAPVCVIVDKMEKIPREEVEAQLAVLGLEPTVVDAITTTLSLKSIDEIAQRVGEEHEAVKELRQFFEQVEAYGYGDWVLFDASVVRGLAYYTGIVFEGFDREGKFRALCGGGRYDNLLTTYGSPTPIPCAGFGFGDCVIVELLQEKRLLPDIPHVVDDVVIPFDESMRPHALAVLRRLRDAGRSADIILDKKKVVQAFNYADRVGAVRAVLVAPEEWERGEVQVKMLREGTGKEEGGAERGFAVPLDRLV
UniProt P9WFT3, whole entry: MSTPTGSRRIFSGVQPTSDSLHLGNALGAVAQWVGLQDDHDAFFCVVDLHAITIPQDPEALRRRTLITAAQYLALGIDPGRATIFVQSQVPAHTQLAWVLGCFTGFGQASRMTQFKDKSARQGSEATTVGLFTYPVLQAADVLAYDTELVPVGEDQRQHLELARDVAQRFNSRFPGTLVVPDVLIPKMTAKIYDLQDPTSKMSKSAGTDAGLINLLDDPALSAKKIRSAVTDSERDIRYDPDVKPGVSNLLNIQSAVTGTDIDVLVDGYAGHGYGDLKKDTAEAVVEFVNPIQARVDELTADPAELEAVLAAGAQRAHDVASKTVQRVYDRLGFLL
UniProt I6X8D2, whole entry: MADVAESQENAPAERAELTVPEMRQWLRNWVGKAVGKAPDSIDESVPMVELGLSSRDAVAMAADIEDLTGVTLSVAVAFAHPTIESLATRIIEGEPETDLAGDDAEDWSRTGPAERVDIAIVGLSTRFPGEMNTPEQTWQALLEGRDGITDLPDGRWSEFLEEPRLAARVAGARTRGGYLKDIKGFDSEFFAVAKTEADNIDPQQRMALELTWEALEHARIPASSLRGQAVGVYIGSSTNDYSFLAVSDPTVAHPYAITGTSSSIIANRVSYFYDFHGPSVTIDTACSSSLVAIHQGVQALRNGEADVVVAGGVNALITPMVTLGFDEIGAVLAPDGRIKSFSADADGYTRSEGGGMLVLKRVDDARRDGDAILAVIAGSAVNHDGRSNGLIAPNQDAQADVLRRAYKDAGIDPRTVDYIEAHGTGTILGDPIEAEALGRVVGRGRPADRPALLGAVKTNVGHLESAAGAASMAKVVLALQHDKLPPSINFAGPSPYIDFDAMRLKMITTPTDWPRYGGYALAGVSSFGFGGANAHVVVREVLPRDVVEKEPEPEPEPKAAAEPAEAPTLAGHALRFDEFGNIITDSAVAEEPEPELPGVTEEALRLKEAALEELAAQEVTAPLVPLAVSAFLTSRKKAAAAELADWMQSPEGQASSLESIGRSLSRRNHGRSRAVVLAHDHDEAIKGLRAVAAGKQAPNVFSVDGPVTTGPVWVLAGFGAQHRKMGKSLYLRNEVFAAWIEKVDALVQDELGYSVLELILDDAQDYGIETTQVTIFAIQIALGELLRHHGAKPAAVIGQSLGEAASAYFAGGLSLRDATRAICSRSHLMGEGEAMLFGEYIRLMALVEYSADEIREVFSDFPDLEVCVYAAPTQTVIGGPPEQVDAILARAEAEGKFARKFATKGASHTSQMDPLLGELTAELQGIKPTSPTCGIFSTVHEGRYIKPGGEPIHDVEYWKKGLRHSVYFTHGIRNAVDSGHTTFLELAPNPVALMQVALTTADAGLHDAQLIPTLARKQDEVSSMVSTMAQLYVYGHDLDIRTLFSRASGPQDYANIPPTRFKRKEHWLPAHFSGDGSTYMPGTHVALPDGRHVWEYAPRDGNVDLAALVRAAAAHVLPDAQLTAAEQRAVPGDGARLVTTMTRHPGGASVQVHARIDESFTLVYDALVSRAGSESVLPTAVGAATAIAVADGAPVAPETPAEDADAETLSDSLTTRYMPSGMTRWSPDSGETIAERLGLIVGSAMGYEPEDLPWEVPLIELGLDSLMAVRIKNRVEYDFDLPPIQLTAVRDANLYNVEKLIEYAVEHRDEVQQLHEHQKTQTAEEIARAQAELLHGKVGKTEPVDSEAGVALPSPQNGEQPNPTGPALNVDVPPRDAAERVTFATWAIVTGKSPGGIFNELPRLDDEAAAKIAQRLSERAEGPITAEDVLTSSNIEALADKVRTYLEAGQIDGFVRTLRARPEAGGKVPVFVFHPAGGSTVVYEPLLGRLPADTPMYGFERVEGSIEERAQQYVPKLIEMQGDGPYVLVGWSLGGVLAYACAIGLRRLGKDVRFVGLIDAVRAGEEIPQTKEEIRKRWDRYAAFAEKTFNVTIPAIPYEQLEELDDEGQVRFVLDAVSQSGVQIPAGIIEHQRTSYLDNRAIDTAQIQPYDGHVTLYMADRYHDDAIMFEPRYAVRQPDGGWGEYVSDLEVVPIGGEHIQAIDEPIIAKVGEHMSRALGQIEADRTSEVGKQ
UniProt Q8IDJ8, 1-583: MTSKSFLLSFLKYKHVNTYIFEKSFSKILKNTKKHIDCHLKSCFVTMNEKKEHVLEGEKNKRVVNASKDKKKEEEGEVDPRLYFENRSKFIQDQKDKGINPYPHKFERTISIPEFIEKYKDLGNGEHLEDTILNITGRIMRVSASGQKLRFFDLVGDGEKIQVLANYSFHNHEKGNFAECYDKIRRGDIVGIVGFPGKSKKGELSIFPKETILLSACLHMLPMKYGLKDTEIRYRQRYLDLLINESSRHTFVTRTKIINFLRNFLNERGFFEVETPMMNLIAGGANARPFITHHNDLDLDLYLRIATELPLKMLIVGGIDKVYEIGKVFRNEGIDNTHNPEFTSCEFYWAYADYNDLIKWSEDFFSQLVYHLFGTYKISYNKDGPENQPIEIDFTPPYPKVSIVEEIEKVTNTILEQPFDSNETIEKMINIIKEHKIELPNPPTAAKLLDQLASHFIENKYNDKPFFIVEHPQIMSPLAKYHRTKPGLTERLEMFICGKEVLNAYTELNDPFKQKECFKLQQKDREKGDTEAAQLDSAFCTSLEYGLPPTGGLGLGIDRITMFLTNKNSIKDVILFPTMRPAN

Source: ChEMBL document CHEMBL3988442, “University of Dundee, Small-Polar-MMV Screening Library” (2021).

Values are the deposited “Percent Effect”, in %. The record does not define 0% and 100%; most values in the screen are far below 50% and negative numbers occur (in some assays of this library far below -100). Compounds were drawn at random from those tested, without regard to their results. A dash means the value is not listed here; it may have been measured.

TcHisRS: 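Enzyme assay of histidyl-tRNA synthetase; the read-out is not stated. Target: Histidine-tRNA ligase, Trypanosoma cruzi CL Brener (UniProt Q4DA54). Tested at 30 µM. The record gives no direction; compounds that gave an IC50 in retests scored well above the rest, so higher reads as stronger inhibition. Size under these conditions: about 69,000 compounds, about 31 of them at 50% or above in at least one test.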
MtTrpRS: 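Enzyme assay of tryptophanyl-tRNA synthetase; the read-out is not stated. Target: Tryptophan-tRNA ligase, Mycobacterium tuberculosis (UniProt P9WFT3). Compounds at 10 µM. Direction is not recorded; retested compounds ran higher, which suggests that high means inhibition. Of about 65,000 compounds tested this way, about 64 (0.098%) reached 50% or more in at least one test.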
Pks13 thioesterase: 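Polyketide synthase Pks13, Mycobacterium tuberculosis (UniProt I6X8D2). Enzyme assay of the thioesterase domain of polyketide synthase 13; the read-out is not stated. Tested at 30 µM. Higher reads as stronger inhibition (inferred from which compounds were picked for retests). Of about 67,000 compounds tested this way, about 300 (0.46%) reached 50% or more in at least one test.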
PfKRS1: 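Enzyme assay of the cytosolic lysyl-tRNA synthetase in 384-well plates, read by luminescence. Target: Lysine-tRNA ligase, Plasmodium falciparum 3D7 (UniProt Q8IDJ8). Tested at 30 µM. Direction is inferred from only a few compounds that gave an IC50; most scored high, so higher reads as stronger inhibition. Size under these conditions: about 69,000 compounds, about 49 of them at 50% or above in at least one test.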
Toxoplasma: 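Assay of Toxoplasma gondii numbers, read through their beta-galactosidase reporter with a colour substrate. Tested at 10 µM. Higher reads as fewer parasites (inferred from which compounds were picked for retests). Of about 67,000 compounds tested this way, about 260 (0.38%) reached 50% or more in at least one test.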

| Compound | TcHisRS | MtTrpRS | Pks13 thioesterase | PfKRS1 | Toxoplasma |
|---|---|---|---|---|---|
| `O=C(O)C(F)(F)F.[H][C@]12CN(Cc3ccccc3F)C[C@@]1([H])OCCN(C(C)=O)C2` | - | - | - | - | -6.808 |
| `CCN(CCO)C[C@@H]1CN(c2cc(C(F)(F)F)cc(C)n2)C[C@@H]1CO` | 2.439 | 0.2719 | -0.6878 | -2.671 | -11.57 |
| `COc1ncccc1CN1CCc2[nH]cnc2C1CCSC` (centres undefined) | 12.64 | -3.052 | -27.44 | -2.523 | - |
| `COc1ccc(F)c(CN2CCCC(O)(CNC3CCCCC3)C2=O)c1` (centres undefined) | 5.102 | 1.679 | -25.26 | -0.7425 | 10.48 |
| `CC(=O)N1CCC2(CCCN(S(=O)(=O)c3ccccc3)C2)C1` (centres undefined) | 0 | 4.36 | -53.33 | -4.507 | 22.3 |
| `Cc1cc(F)ccc1CNCc1cccc(C(=O)N2CCCC2)c1` | 2.564 | 2.442 | -33.03 | -0.9245 | 9.316 |
| `CC(C)C(C)(C#N)NC(=O)Cn1cc(-c2ccccc2)cn1` (centres undefined) | -1.734 | 0.2653 | -52.95 | 6.577 | 11.14 |
| `Cc1ccc(C(=O)N2CCCC3(C2)C(=O)N(C)c2ccccc23)c(=O)[nH]1` (centres undefined) | 2.97 | -0.7776 | -8.633 | 2.252 | 14.82 |
| `COc1cc(N[C@@H](Cc2ccccc2)C(N)=O)ncn1` | 6.383 | -2.347 | -18.25 | 5.498 | -5.743 |
| `CCc1sc(C(=O)N2CCC(Nc3ccc(C)nn3)CC2)cc1C` | 4.52 | -2.801 | -13.62 | 4.474 | 2.768 |
| `Nc1nc2c(c(N3CCCC(OCc4ccccn4)C3)n1)CCNCC2` (centres undefined) | 4.478 | -6.578 | -21.94 | 3.865 | 1.872 |
| `O=C(COCCOc1ccccc1)NC1CCN(c2ccccn2)CC1` | 9.845 | 1.375 | -11.65 | -0.975 | 10.34 |
| `CC(C)c1ncc(Cl)c(C(=O)N2CCN3CCCCC3C2)n1` (centres undefined) | 3.879 | -1.374 | -38.84 | -0.8695 | 8.156 |
| `Cc1cc(CNC2(c3ccccc3F)CC2)no1` | 3.867 | -5.47 | -4.783 | 4.349 | -1.04 |
| `Cc1c(C(=O)NCC(F)(F)F)nnn1-c1ccccc1Cl` | 4.459 | -4.541 | - | -0.8863 | 0.5394 |
| `OCCn1cc(CN2CCN(CCOc3ccccc3F)CC2)cn1` | 2.682 | -3.79 | -17.08 | -3.911 | -0.2154 |
| `C=Cc1cccc(CN2C[C@H]3CC[C@@H]2CN(Cc2c(C)noc2C)C3)c1` | 4.865 | -4.015 | -2.832 | -2.434 | - |
| `Cc1cccc(CNCCOc2ccc(S(C)(=O)=O)cc2)c1` | -3.061 | -3.636 | - | 4.49 | 10.07 |
| `COc1ccccc1CN(CCCn1ccnc1)CC1CCOC1` (centres undefined) | 4.981 | -6.413 | -3.644 | -0.04906 | - |
| `Cc1cc(C(F)(F)F)c2c(=O)n(Cc3ccon3)n(C)c2n1` | -0.4425 | -2.431 | -3.672 | 6.903 | 5.04 |
| `CCS(=O)(=O)Nc1ccc2c(c1)C1(CCOCC1)CN2C` | 5.528 | - | 10.74 | -0.1353 | - |
| `CCN1CCc2c(sc3c2C(=O)NC(/C=C/c2ccco2)N3)C1` (centres undefined) | -1.775 | 12.36 | 48.84 | -5.579 | 29.59 |
| `Cc1ccc(-c2nc(CC(=O)N3CCN(c4cnccn4)CC3)cs2)o1` | 11.83 | -0.3834 | 11.82 | 0.9082 | -3.614 |
| `CCN(CC)c1ncccc1CNC(=O)c1cc2nc(C)cc(C)n2n1` | 3.415 | -1.341 | -7.843 | 2.02 | -4.109 |
| `COc1ccc2c(c1)C1(CCN(Cc3ccccn3)CC1)N(C)CC2` | 8.743 | -4.204 | -36.24 | 4.455 | - |
| `Cc1cccc(Cn2cc(C)c(N)n2)c1` | 3.468 | - | -0.6206 | 2.402 | -14.99 |
| `CCNc1ncc(C(=O)N2CCC(c3ccccc3C(=O)O)C2)cn1` (centres undefined) | -9.662 | -0.2894 | 1.845 | 2.136 | -6.456 |
| `CC(C)CC(=O)N1CCC2(CC1)[C@@H]1CN(C(=O)N(C)C)C[C@@H]1C(=O)N2C` | 3.883 | -4.123 | -4.172 | 2.111 | - |
| `Cc1ccccc1CN(C)C(=O)c1ccoc1` | 5.028 | -8.004 | 6.834 | 1.518 | 0 |
| `Cn1c(=O)[nH]c(=O)c2cc(C(=O)N3CCCC3C3CCCC3)cnc21` (centres undefined) | -7.368 | 4.298 | -0.1951 | -1.33 | -12.94 |
| `Cc1ccsc1CN(CCN(C)C)C(=O)C1=NNC(=O)CC1` | 4.598 | 0.7807 | 6.324 | 0.294 | - |
| `CCCN(CC(=O)N1CCNCC1)C(=O)c1cccc(Cl)c1.O=C(O)C(F)(F)F` | - | - | - | - | -13.31 |
| `O=C(O)C(F)(F)F.O=C(O)C(F)(F)F.[H][C@@]12CO[C@@H](CN(C)C)[C@]1([H])CCN(Cc1ccoc1)C2` | - | - | - | - | 1.645 |
| `N#Cc1ccc(CN2CCCN(CCCn3cncn3)CC2)cc1` | -3.012 | -7.285 | 5.923 | -3.601 | -4.35 |
| `CN1CCC(Nc2ccc(F)cc2OCC(F)(F)F)C1=O` (centres undefined) | 10.5 | -7.464 | -5.834 | 2.684 | 10.79 |
| `CC(c1nc(C(C)(C)C)no1)N1CCC(N2CCCC2)CC1` (centres undefined) | -0.9804 | 3.592 | 29.39 | -4.739 | 5.192 |
| `[H][C@@]12CC(C)=CC[C@]1([H])CN(C(=O)c1ccnc(CCC)c1)C2` | - | - | - | - | 28.54 |
| `Cc1cc(CN2CCN(CC3CC3)[C@@H]3CS(=O)(=O)C[C@@H]32)cc(C)c1O` | 8.939 | 11.08 | -35.53 | 2.892 | - |
| `O=C(Nc1cc(CSCCO)ccn1)c1cc2ccccc2[nH]1` | 9.804 | -2.257 | 8.489 | 2.727 | -9.592 |
| `CN(C(=O)C(c1c(F)cccc1Cl)N(C)C)c1nccs1` (centres undefined) | 2.809 | -1.024 | -15.01 | 1.795 | -0.9513 |
| `CN(CCc1ccccn1)C1CCCN(Cc2noc(C3CC3)n2)C1` (centres undefined) | 6.533 | 1.614 | -1.41 | 6.315 | 9.98 |
| `[H][C@]12CNC[C@@]1(C(=O)NCCS(=O)(=O)NC)CN(C1CCCC1)C2` | - | - | - | - | 2.182 |
| `CCc1ncc(C(=O)N2CC(N3CCCCC3)C2)cn1` | -4.972 | -1.569 | 1.018 | 0.1594 | -6.832 |
| `Cc1nc(CN2CCC(CNC(=O)NCCC3CCC3)CC2)oc1C` | 3.488 | -4.661 | -2.05 | 2.414 | -0.5217 |
| `CCn1c(N)nc2cc(C(=O)N3CCC(N4CCCC4)CC3)cnc21` | 7.027 | -5.948 | -15.86 | 5.01 | 12.36 |
| `O=C(O)C(F)(F)F.[H][C@@]12CCN(c3nncs3)[C@@]1([H])CCN2C(=O)NC1CC1` | - | - | - | - | -3.83 |
| `CCOc1c(F)cccc1C(=O)N(CC)C(C)c1cccnc1` (centres undefined) | 6.667 | 0.3799 | -18.74 | -3.023 | 9.205 |
| `COCCN(Cc1ccoc1)C(=O)c1ccccc1Cl` | 4.348 | -8.931 | -9.147 | -1.617 | 0.6652 |
| `CN(Cc1ccc2nsnc2c1)C(=O)Cn1ncc(N(C)C)cc1=O` | 7.2 | 0.161 | 1.628 | 7.483 | -12.39 |
| `Cc1oncc1C(=O)N1CCC2(CC1)C(c1cnn(C)c1)CC(=O)N2C` (centres undefined) | 7.563 | 7.105 | -11 | 2.381 | -4.647 |
| `Cc1nnc(C(C)NCC2(c3ccc(Cl)cc3)CCOCC2)o1` (centres undefined) | 5.128 | 2.194 | -13.9 | 2.358 | -2.816 |
| `CCOn1c(SC(C)C)nc2ccccc2c1=O` | 4.878 | -0.3408 | -1.27 | -0.5231 | 14.52 |
| `CCN1CC2(CC1=O)CN(C(=O)c1cccs1)CCN(C(=O)N(C)C)C2` (centres undefined) | -36.84 | 2.703 | -7.853 | 3.789 | -15.38 |

The last 4 entries again:

Compound,TcHisRS,MtTrpRS,Pks13 thioesterase,PfKRS1,Toxoplasma
Cc1oncc1C(=O)N1CCC2(CC1)C(c1cnn(C)c1)CC(=O)N2C (centres undefined),7.563,7.105,-11,2.381,-4.647
Cc1nnc(C(C)NCC2(c3ccc(Cl)cc3)CCOCC2)o1 (centres undefined),5.128,2.194,-13.9,2.358,-2.816
CCOn1c(SC(C)C)nc2ccccc2c1=O,4.878,-0.3408,-1.27,-0.5231,14.52
CCN1CC2(CC1=O)CN(C(=O)c1cccs1)CCN(C(=O)N(C)C)C2 (centres undefined),-36.84,2.703,-7.853,3.789,-15.38